No constants are given. Whether binding was seen depends on the method and setting. Binding seen in cells or lysates may run through a third protein. Some binding calls cover weakened binding; strength is not graded here.
B1: Nrd1 (protein, UniProt P53617 1-575)
chain: MQQDDDFQNFVATLESFKDLKSGISGSRIKKLTTYALDHIDIESKIISLIIDYSRLCPDSHKLGSLYIIDSIGRAYLDETRSNSNSSSNKPGTCAHAINTLGEVIQELLSDAIAKSNQDHKEKIRMLLDIWDRSGLFQKSYLNAIRSKCFAMDISNNTANTASQQLSLDPKQRSKQILSNLKKSPPLNLNISLPTDLTSTDPAKQQAALFQVIAALQKHFKTLPSHTSVGTVAPPQAHTITEYGSRRERERERERYNSRRNRSRSPPAPFSQPSTGRKDRYPSVAQDQYSIGAPNTTFGTNNHHLYPDELNVSNNPHYRPKPVSYDSTLPPDHIKVYSRTLFIGGVPLNMKEWDLANVLKPFAEVQSVILNNSRKHAFVKVYSRHEAENVLQNFNKDGALPLRTRWGVGFGPRDCCDYQHGYSIIPMHRLTDADKKWSVSAQWGGTSGQPLVTGIVFEEPDIIVGEGVSSKAISQKMPTDSGRNGPRSGKPNKSGSISSISPVPYGNAPLASPPPQQYVQPMMQQPYGYAPNQPLPSQGPAAAAPPVPQQQFDPTAQLNSLMNMLNQQQQQQQQS

Amino acid sequences for entries named in this document (tags omitted). A change or cut given only in a name is not applied to a line headed by its entry.
UniProt P04050, whole entry: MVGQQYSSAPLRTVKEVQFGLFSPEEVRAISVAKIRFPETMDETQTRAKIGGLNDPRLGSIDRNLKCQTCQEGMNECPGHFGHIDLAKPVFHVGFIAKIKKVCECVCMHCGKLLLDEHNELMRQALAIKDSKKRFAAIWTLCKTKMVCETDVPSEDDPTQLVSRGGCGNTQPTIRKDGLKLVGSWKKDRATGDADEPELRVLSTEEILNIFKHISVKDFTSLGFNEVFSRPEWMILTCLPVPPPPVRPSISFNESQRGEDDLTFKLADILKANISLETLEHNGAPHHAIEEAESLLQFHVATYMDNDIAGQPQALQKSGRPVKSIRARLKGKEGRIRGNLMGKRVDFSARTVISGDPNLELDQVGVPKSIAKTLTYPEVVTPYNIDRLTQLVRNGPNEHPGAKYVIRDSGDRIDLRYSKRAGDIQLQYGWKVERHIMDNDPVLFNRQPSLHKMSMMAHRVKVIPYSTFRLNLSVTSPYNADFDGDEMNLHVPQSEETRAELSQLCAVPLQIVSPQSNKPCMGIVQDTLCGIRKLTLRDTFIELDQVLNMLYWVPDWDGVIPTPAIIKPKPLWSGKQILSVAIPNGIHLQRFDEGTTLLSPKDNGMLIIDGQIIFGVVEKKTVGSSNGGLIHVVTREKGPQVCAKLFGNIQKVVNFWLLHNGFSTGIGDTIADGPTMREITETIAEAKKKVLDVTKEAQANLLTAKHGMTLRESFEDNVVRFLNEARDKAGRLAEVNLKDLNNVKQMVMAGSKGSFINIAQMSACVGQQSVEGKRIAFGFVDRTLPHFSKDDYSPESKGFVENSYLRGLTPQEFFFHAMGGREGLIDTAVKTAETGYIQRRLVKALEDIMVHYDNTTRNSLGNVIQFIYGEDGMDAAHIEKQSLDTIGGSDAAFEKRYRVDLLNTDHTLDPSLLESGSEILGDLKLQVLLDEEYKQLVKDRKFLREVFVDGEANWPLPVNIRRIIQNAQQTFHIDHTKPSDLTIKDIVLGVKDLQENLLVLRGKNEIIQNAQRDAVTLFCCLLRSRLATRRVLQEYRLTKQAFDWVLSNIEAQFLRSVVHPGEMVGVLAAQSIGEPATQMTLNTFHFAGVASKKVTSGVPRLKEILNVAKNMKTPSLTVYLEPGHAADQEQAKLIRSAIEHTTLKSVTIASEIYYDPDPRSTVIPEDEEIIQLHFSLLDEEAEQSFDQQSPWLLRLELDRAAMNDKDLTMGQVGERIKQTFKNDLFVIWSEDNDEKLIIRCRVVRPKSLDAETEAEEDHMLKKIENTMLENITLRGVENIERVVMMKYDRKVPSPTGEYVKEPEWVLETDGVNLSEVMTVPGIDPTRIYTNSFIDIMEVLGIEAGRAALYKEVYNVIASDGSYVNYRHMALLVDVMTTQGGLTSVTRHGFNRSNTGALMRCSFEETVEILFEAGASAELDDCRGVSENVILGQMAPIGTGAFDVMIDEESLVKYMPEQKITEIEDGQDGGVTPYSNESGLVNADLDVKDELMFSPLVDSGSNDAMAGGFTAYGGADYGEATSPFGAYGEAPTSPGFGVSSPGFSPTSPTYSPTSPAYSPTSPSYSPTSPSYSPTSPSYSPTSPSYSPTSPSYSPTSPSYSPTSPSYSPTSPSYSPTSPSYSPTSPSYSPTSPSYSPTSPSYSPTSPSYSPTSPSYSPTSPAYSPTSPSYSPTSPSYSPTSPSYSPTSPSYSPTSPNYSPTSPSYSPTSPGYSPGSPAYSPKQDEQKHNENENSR

Tests used:
Assay in all cases: co-IP
TAP-Sen1 (S. cerevisiae) = TAP-Sen1 (S. cerevisiae) (UniProt Q00416)
[1] = biological target: TAP-Sen1ΔNter (S. cerevisiae) (UniProt Q00416)
[2] = biological target: HA-tagged Sen1 (wt) (S. cerevisiae) (UniProt Q00416)

Molecule	binding (TAP-Sen1 (S. cerevisiae))	binding [1]	binding [2]
RNAPII with unphosphorylated CTD (Rpb1) (from UniProt P04050 1-1733)	binds	binds	–
B1	–	–	binds

— doi:10.1101/433045 (bioRxiv, 2020)
